# Laboratory results: PubChem BioAssay AID1259425 (University of Nebraska Medical Center, 2018)
# Assay: 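Compare each knockdown with KSR1 silencing using changes in marker transcripts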 (primary screen)
# Cell system: HCT116 human colon cancer cells
# Knock-down reagent: siRNA pool against human genes, 50 nM siRNA
# Measured: 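After 50 nM siRNA pool, branched-DNA assay measures six marker transcripts per well, minus blank, normalised to the geometric mean of two housekeeping transcripts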
# Scale: BNIP3L mRNA: higher = more BNIP3L transcript after knockdown; NDRG1 mRNA: higher = more NDRG1 transcript after knockdown; BNIP3 mRNA: higher = more BNIP3 transcript after knockdown; ALDOC mRNA: higher = more ALDOC transcript after knockdown; ACSL5 mRNA: higher = more ACSL5 transcript after knockdown
# Here is one part, drawn at random, of about 14,000 deposited reagents. The record does not give: the time to read-out.
gene,"BNIP3L mRNA, set 1","NDRG1 mRNA, set 1","BNIP3 mRNA, set 1","ALDOC mRNA, set 1","ACSL5 mRNA, set 1"
HOOK1 (hook microtubule tethering protein 1),0.0909,0.107,0.461,0.0236,0.175
DDC (dopa decarboxylase),0.0459,0.0866,0.341,0.0297,0.145
NOS3 (nitric oxide synthase 3),0.146,0.117,0.249,0.0167,0.0797
"REL (REL proto-oncogene, NF-kB subunit)",0.0721,0.0737,0.26,0.0224,0.0753
"PMEPA1 (prostate transmembrane protein, androgen induced 1)",0.221,0.536,0.508,0.0329,0.667
CUL9 (cullin 9),0.0589,0.198,0.242,0.0183,0.163
PRF1 (perforin 1),0.168,0.0752,0.249,0.0091,0.252
FBXW4 (F-box and WD repeat domain containing 4),0.0468,0.28,0.204,0.0249,0.202
NMUR1 (neuromedin U receptor 1),0.171,0.225,0.261,0.0454,0.258
LMNA (lamin A/C),0.0954,0.3,0.376,0.0131,0.0867
OFD1 (OFD1 centriole and centriolar satellite protein),0.204,0.263,0.311,0.0697,0.397
DNAJC30 (DnaJ heat shock protein family (Hsp40) member C30),0.176,0.345,0.294,0.101,0.372
ANXA9 (annexin A9),0.117,0.127,0.272,0.00453,0.19
GRB10 (growth factor receptor bound protein 10),0.108,0.182,0.157,0.0175,0.147
ATP8B2 (ATPase phospholipid transporting 8B2),0.182,0.422,0.35,0.0624,0.28
PSMB5 (proteasome 20S subunit beta 5),0.526,1.99,0.585,0.142,0.403
CEND1 (cell cycle exit and neuronal differentiation 1),0.0981,0.372,0.726,0.0089,0.164
PLEKHS1 (pleckstrin homology domain containing S1),0.088,0.558,0.239,0.0214,0.33
"ST6GALNAC5 (ST6 N-acetylgalactosaminide alpha-2,6-sialyltransferase 5)",0.142,0.298,0.319,0.0508,0.294
SLC38A1,0.193,0.159,0.312,0.0355,0.215
MAGEL2 (MAGE family member L2),0.163,0.249,0.363,0.0352,0.171
CHRM3 (cholinergic receptor muscarinic 3),0.082,0.128,0.206,0.0142,0.123
PDE6D (phosphodiesterase 6D),0.0542,0.213,0.237,0.0324,0.0987
PSMF1 (proteasome inhibitor subunit 1),0.233,0.93,0.232,0.0784,0.244

Copied from the listing (6 entries):
gene,"BNIP3L mRNA, set 1","NDRG1 mRNA, set 1","BNIP3 mRNA, set 1","ALDOC mRNA, set 1","ACSL5 mRNA, set 1"
LMNA (lamin A/C),0.0954,0.3,0.376,0.0131,0.0867
OFD1 (OFD1 centriole and centriolar satellite protein),0.204,0.263,0.311,0.0697,0.397
DNAJC30 (DnaJ heat shock protein family (Hsp40) member C30),0.176,0.345,0.294,0.101,0.372
ANXA9 (annexin A9),0.117,0.127,0.272,0.00453,0.19
GRB10 (growth factor receptor bound protein 10),0.108,0.182,0.157,0.0175,0.147
ATP8B2 (ATPase phospholipid transporting 8B2),0.182,0.422,0.35,0.0624,0.28

The listing continues:
gene,"BNIP3L mRNA, set 1","NDRG1 mRNA, set 1","BNIP3 mRNA, set 1","ALDOC mRNA, set 1","ACSL5 mRNA, set 1"
DMRT1 (doublesex and mab-3 related transcription factor 1),0.0525,0.13,0.339,0.0163,0.0849
SLCO2A1,0.177,0.213,0.326,0.0241,0.225
S100A3 (S100 calcium binding protein A3),0.0594,0.0713,0.294,0.0119,0.0807
METTL14,0.12,0.116,0.258,0.0162,0.135
GABRA6 (gamma-aminobutyric acid type A receptor subunit alpha6),0.096,0.198,0.246,0.0145,0.237
OLFM4 (olfactomedin 4),0.143,1.5,0.281,0.0242,0.382
P2RX7 (purinergic receptor P2X 7),0.0767,0.364,0.219,0.0284,0.0984
HSP90AA2P,0.0743,0.141,0.355,0.00952,0.156
TNPO3 (transportin 3),0.11,0.101,0.466,0.0146,0.354
IGSF9 (immunoglobulin superfamily member 9),0.178,0.173,0.317,0.0143,0.138
UBQLN3 (ubiquilin 3),0.0784,0.0539,0.418,0.0516,0.092
MYO3B (myosin IIIB),0.106,0.0357,0.2,0.0224,0.169
ITGA2B (integrin subunit alpha 2b),0.111,0.446,0.196,0.0361,0.176
KDM4C (lysine demethylase 4C),0.118,0.202,0.368,0.0147,0.115
TENM1 (teneurin transmembrane protein 1),0.135,0.155,0.226,0.0166,0.263
HP (haptoglobin),0.0572,0.0396,0.26,0.0927,0.152
SPATA20 (spermatogenesis associated 20),0.105,0.307,0.328,0.0313,0.106
NCS1 (neuronal calcium sensor 1),0.171,0.305,0.493,0.0305,0.207
GZMK (granzyme K),0.11,0.0333,0.297,0.0128,0.0409
ANGPT4 (angiopoietin 4),0.0682,0.219,0.305,0.0113,0.298
FAABTP (fatty acid amide binding transmembrane protein),0.0892,0.129,0.268,0.0365,0.0988
KRT75 (keratin 75),0.079,0.0996,0.191,0.0148,0.146
FECH (ferrochelatase),0.0763,0.15,0.201,0.0163,0.276
DEPP1 (DEPP autophagy regulator 1),0.111,0.0422,0.307,0.0412,0.249
CARD6 (caspase recruitment domain family member 6),0.117,0.211,0.329,0.0083,0.116
OCLM (retired record),0.0991,0.105,0.225,0.0179,0.144
